Experimental findings from PMC5871780, “Klf4 glutamylation is required for cell reprogramming and early embryonic development in mice” are described below.

Protein sequences, listed by entry. Tags and fused reporters are not part of them.
UniProt Q60793: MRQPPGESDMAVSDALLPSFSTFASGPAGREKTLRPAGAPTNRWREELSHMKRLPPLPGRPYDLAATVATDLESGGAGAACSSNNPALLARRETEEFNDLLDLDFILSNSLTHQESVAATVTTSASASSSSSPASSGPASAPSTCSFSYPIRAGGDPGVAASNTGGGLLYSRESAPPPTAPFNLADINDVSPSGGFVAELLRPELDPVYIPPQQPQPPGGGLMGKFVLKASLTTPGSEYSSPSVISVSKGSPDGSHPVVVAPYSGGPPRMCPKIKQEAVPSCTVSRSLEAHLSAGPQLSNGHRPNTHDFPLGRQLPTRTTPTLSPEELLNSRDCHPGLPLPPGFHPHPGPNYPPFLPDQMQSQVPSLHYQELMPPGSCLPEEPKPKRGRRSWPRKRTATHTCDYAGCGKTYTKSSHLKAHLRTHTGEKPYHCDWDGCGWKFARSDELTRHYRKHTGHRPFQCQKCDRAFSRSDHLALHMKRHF
UniProt Q9Y297: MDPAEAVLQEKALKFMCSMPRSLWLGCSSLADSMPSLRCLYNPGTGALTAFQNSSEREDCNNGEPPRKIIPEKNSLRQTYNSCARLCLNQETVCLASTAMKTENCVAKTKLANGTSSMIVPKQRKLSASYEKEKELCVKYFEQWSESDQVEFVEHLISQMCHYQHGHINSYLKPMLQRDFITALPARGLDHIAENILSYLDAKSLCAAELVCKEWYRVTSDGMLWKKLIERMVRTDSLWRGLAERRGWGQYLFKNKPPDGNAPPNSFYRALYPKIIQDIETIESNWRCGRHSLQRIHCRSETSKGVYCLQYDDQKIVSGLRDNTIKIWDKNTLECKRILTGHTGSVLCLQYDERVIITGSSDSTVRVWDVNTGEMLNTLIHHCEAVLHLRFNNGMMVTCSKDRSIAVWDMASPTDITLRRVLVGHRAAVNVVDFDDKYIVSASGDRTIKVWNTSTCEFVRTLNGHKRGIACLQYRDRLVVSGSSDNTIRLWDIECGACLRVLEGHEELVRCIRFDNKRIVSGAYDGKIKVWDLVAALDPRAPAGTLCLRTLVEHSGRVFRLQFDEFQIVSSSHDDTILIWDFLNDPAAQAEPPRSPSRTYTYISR

These are yes or no findings as the source states them, for the method shown. Binding seen in cells or lysates may run through a third protein. Some entries that bind do so weakly or less than the wild type.

The experiment has as its target rGST-Klf4 (recombinant GST-tagged mouse wild-type Klf4) (mouse) (UniProt Q60793). Kind of experiment: pull-down; rGST-Klf4, with or without pre-incubation with lysates from 293T cells transfected with Flag-TTLL4 at 37 °C for 2 h, GST pulldown with Flag-βTrCP1, immunoblotting.

As for Flag-βTrCP1 (from UniProt Q9Y297 1-605), the binding entry was “binds”.
